Tests used:
[1] = test system: murine articular knee joint; settings: all doses; comparable to basal levels of control samples (FIG. 1)
Excerpt: (iii) In Vivo Functional Validation of Histamine-Induced Responses Murine Articular Knee Joint
It is hypothesised that histamine released by trafficking mast cells or by the de novo synthesis of histamine by articular chondrocytes induces a H1-dependant increase in COX-2 mRNA expression and elevated PGE2 synthesis in synovial fibroblasts and articular chondrocytes. To evaluate the role of histamine in pathological processes in the joint, a pharmacodynamic mouse model was developed to investigate the effect of intra-articular injection (IAI) of histamine on joint swelling using calliper measurements, and measuring PGE2 and/or 11-6 levels from synovial knee joint ravages.
Adult C57B16 mice were dosed with either vehicle or test compound 1 hour prior to intra-articular injection of histamine (5 μmol). Swelling was induced by injection of 6 μl of histamine/saline suspension into the knee joint cavity under inhalation anaesthesia with isoflurane. Joint swelling was quantified by calliper measurements taken at 1, 6, 12, 24, 36 and 48 hr. Terminal synovial fluid knee lavages were sampled and levels of the inflammatory mediator I1-6 were measured in the fluid from synovial knee joint ravages.

[2] = test system: human articular chondrocytes (HAC); settings: 10 nM (FIG. 2)
[3] = test system: human articular chondrocytes (HAC); settings: 10 nM

Clc1ccc2c(c1)CCc1cccnc1C2=C1CCNCC1 [desloratadine]
inhibition of histamine-induced IL-6 release in joint lavage [1]: significantly inhibited | inhibition of histamine-induced PGE2 release [2]: inhibited | inhibition of histamine-induced increase in Cox2 mRNA expression [3]: inhibited

Reference: patent US20080108661A1, “Medicaments” (AstraZeneca AB, priority 2006, published 2008)
